Source: patent US20020086983A1
These are yes or no findings as the source states them, for the method shown. In cells and extracts the contact can be indirect. Some results given as binding are weak or reduced against the parent protein; the word gives no strength. For some assays here: Tags and fused reporters may be left off the sequences shown.

Protein sequences, listed by entry. Tags and fused reporters are not part of them. Lines headed by an entry give the natural chain unless they say otherwise; changes in a name come on top. Chains listed by the source or under a name are the forms on record and can include a tag or linker.
Flag-Mch5b C345A (Q14790, form named): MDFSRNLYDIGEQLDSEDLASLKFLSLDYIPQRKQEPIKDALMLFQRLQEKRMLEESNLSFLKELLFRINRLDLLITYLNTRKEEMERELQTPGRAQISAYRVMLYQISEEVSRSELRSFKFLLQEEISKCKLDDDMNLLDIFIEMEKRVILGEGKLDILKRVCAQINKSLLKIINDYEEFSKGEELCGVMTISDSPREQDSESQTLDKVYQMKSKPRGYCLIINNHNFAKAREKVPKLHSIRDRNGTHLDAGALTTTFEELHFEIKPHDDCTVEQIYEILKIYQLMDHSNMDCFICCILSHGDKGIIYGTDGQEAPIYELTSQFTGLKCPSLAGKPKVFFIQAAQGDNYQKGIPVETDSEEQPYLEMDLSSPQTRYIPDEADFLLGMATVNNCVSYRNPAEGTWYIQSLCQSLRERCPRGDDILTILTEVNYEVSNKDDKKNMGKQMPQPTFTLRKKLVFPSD
UniProt O75618: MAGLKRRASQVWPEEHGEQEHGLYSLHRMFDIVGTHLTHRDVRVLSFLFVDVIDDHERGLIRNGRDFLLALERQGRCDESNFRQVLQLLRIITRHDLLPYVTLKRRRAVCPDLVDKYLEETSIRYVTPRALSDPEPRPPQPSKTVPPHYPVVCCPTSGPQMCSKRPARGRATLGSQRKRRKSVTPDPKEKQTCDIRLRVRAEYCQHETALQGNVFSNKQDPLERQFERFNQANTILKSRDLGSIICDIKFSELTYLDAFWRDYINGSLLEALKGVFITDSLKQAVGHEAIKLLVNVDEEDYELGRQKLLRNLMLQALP

How the values were obtained:
Flag-Mch4 C358A = biological target: T1, Flag-Mch4 C358A (UniProt Q92851); test: co-immunoprecipitation from transfected 293 cells: anti-Flag IP, Western blot with HRP-T7 antibody
T1 sequence (looked up): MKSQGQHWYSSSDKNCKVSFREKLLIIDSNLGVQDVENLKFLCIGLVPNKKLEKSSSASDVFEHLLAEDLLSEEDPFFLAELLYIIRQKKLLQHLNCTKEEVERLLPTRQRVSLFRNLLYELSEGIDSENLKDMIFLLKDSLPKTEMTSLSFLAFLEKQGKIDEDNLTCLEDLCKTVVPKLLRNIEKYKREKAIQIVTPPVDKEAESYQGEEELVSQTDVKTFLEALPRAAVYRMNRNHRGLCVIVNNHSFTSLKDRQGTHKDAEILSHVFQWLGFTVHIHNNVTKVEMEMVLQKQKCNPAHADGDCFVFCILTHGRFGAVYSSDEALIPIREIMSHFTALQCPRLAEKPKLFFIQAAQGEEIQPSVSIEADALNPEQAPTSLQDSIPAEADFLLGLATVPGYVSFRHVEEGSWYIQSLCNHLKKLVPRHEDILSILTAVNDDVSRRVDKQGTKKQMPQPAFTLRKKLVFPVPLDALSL

Flag-Mch5b C345A = Flag-Mch5b C345A (UniProt Q14790); test: as above

Substance: T7-FLAME-2 (from UniProt O75618 1-318)
- binding (Flag-Mch4 C358A): binds
- binding (Flag-Mch5b C345A): binds
